Measurements reported in PubChem BioAssay AID1259328 (Drosophila RNAi Screening Center, 2017)
The deposit covers 95 reagents; shown is an unselected part. 6 of all reagents (6.3%) were called active. 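Only two distinct z-score sets exist; calls follow set 1, and set 2 holds one inactive gene scoring above 1.5.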 Reagents against one gene are numbered here. No sequences are given here. Not stated in the record: the amount of reagent.

- Screen: 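Knock-downs that change cellular ATP after exposure to high zinc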
- Cell system: Drosophila S2R+ cells
- Reagents: long dsRNA against Drosophila genes
- Duration: 5 days (4 days knock-down, then 1 day metal)
- Conditions: zinc chloride added to 15 mM final for 1 day
- Measurement: 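ATP luminescence per well as a viability signal, measured after 4 days of knock-down and 1 day of 15 mM zinc chloride, reported as mean z-score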
- Reading the numbers: ATP z-score, averaged: higher = more ATP, more viable cells under zinc
- Active means: 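Called active when the set 1 averaged z-score exceeds 1.5 or falls below -1.5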

| gene | reagent no. | ATP z-score, averaged, set 1 | ATP z-score, averaged, set 2 | activity call |
| --- | --- | --- | --- | --- |
| p38c (p38c MAP kinase) | 1 | -0.305 | -0.221 | inactive |
| p38c (p38c MAP kinase) | 2 | -0.452 | -0.42 | inactive |
| SPoCk (Secretory Pathway Calcium atpase) | 1 | -0.263 | -0.17 | inactive |
| SPoCk (Secretory Pathway Calcium atpase) | 2 | -0.657 | -0.266 | inactive |
| CHMP2B (Charged multivesicular body protein 2b) | 1 | 0.166 | 0.583 | inactive |
| CHMP2B (Charged multivesicular body protein 2b) | 2 | -0.327 | -0.0995 | inactive |
| Alk (Anaplastic lymphoma kinase) | 1 | -0.382 | -0.545 | inactive |
| Alk (Anaplastic lymphoma kinase) | 2 | -0.365 | -0.496 | inactive |
| Alk (Anaplastic lymphoma kinase) | 3 | -0.0307 | -0.474 | inactive |
| p38b (p38b MAP kinase) | 1 | -0.688 | -0.00997 | inactive |
| CG42674 | 1 | -0.219 | 0.119 | inactive |
| CG42674 | 2 | -0.541 | -0.332 | inactive |

Part of the list above, reformatted:
{"gene": "SPoCk (Secretory Pathway Calcium atpase)", "reagent no.": 1, "ATP z-score, averaged, set 1": -0.263, "ATP z-score, averaged, set 2": -0.17, "activity call": "inactive"}
{"gene": "SPoCk (Secretory Pathway Calcium atpase)", "reagent no.": 2, "ATP z-score, averaged, set 1": -0.657, "ATP z-score, averaged, set 2": -0.266, "activity call": "inactive"}
{"gene": "CHMP2B (Charged multivesicular body protein 2b)", "reagent no.": 1, "ATP z-score, averaged, set 1": 0.166, "ATP z-score, averaged, set 2": 0.583, "activity call": "inactive"}

Continued:
| gene | reagent no. | ATP z-score, averaged, set 1 | ATP z-score, averaged, set 2 | activity call |
| --- | --- | --- | --- | --- |
| alphaCOP (Coat Protein (coatomer) alpha) | 1 | 2.35 | 2.19 | active |
| alphaCOP (Coat Protein (coatomer) alpha) | 2 | 2.7 | 2.42 | active |
| alphaCOP (Coat Protein (coatomer) alpha) | 3 | 2.52 | 2.58 | active |
| ATP7 | 1 | 0.0991 | 0.08 | inactive |
| ATP7 | 2 | 0.0903 | -0.192 | inactive |
| mTor (mechanistic Target of rapamycin) | 1 | 1.38 | 1.78 | inactive |
| mTor (mechanistic Target of rapamycin) | 2 | 1.47 | 1.48 | inactive |
| rl (rolled) | 1 | 0.00317 | -0.397 | inactive |
| rl (rolled) | 2 | 0.156 | 0.0433 | inactive |
